System: 4-week-old swine
Experiment: Blinded, randomized, controlled pediatric swine asphyxial model of cardiac arrest (survival, cerebral blood flow, hemodynamics)
Type: in vivo
Conditions: iNO 20 ppm vs placebo
Source text: Neurologic injury following pediatric cardiac arrest (CA) remains common. Inhaled nitric oxide (iNO) may mitigate cerebral mitochondrial dysfunction, a critical convergence point for secondary brain injury, triggered by CA. It was hypothesized that following asphyxia and cardiac arrest, animals treated with 20 ppm iNO during CPR and four hours post-return of spontaneous circulation (ROSC) will have improved cerebral blood flow (CBF) and improved mitochondrial function as defined by increased respiratory control ratio (RCR) and decreased mitochondrial reactive oxygen species (mtROS) compared with placebo.
4-week-old swine received 7 minutes of asphyxia, then ventricular fibrillation. Guideline CPR was performed with compression depth (CD)≥⅓ of the chest diameter and standard epinephrine continued for 10 mins or until ROSC, with protocolized post-ROSC care. In a blinded fashion, subjects were randomized (iNO 20 ppm initiated 1 minute into CPR period, n=10, or placebo, n=10). […] Baseline and continuous CBF measurements were taken using invasive clinical and non-invasive optical instrumentation. Cortical and hippocampal tissue were analyzed by high-resolution respirometry to assess mitochondrial function. T-tests and ANOVA were used where applicable. Longitudinal hemodynamic variables were compared using generalized estimating equations to control for within-subject correlation.

SMILES: [N]=O [iNO, nitric oxide]
- systemic or pulmonary hemodynamics: no differences
